In patent US20260022165A1 (US Dept. of Health and Human Services, published 2026) one finds binding data, which are given here for four molecules.

Amino acid sequences for entries named in this document (tags omitted). Residues count along the entry.
UniProt P01024, residues 23-1663: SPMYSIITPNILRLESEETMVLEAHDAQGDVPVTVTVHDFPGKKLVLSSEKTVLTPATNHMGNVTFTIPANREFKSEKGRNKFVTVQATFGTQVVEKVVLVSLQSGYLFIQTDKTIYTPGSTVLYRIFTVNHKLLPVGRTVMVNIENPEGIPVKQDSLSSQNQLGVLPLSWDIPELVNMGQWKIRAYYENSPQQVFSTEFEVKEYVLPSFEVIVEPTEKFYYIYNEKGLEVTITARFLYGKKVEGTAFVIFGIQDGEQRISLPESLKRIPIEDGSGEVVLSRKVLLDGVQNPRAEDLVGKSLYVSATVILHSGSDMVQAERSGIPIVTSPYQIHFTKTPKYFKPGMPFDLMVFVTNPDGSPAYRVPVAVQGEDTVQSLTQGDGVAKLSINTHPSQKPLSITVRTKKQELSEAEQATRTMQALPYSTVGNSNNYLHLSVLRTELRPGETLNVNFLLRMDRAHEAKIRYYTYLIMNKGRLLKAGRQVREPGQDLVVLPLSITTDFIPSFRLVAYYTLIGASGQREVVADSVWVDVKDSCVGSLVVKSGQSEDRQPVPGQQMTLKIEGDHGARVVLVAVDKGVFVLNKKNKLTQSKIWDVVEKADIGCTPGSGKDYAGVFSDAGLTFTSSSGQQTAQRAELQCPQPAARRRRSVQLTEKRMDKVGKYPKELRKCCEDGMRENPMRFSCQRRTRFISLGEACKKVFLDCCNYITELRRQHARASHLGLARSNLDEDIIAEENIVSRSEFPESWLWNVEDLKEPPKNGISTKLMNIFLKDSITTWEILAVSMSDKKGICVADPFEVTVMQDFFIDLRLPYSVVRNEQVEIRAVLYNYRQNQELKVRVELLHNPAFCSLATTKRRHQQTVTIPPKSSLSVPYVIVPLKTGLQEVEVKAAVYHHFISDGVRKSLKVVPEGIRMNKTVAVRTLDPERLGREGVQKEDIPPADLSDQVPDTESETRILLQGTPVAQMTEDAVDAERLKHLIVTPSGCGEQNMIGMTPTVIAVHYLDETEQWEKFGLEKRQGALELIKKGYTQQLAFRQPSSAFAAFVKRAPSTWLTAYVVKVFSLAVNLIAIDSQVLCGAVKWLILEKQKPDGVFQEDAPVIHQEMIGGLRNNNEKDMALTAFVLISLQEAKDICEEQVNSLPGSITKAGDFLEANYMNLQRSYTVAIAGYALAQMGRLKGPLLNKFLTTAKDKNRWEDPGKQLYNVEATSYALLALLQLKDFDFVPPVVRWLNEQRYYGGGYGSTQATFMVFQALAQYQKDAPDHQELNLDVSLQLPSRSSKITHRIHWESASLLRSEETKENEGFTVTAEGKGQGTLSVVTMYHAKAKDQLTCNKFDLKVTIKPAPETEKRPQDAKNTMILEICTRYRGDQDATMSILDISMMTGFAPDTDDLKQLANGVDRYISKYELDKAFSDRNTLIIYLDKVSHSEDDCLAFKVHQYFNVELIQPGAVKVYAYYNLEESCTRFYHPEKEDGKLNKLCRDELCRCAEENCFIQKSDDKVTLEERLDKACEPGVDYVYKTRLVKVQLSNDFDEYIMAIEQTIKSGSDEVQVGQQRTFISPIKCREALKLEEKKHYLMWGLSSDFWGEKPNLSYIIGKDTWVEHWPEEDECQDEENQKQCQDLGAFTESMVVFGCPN

B1: Ab4 Fab (His-tagged rabbit/human chimeric anti-C3d Fab) (Fab, V domains shown)
VH: QSLEESGGRLVTPGTPLTLTCTVSGFSLSRYTMAWVRQAPGKGLEYIGWIDSSGSTYYASWAKGRFTISKTSSTTVDLKMTSLTTEDTATYFCASGNDGGDPLYYGMDPWGPGTLVTVSS
VL: DGVMTQTPSSTSAAVGGTVTIKCQASQSIRSWLSWYQQKPGQPPKLLIYEASKLASGVPSRFKGSRSGTEYTLAISGVQREDAATYYCLGSIASDDTAFGAGTNVEIK
notes: Fab with rabbit Vκ/human Cκ/rabbit VH, His-tagged; also called Ab4 (κ)
B2: Ab5 Fab (His-tagged rabbit/human chimeric anti-C3d Fab) (Fab, V domains shown)
VH: B1 VH with R30T, M33L, A34G, T56A, T71A, T81A, S82G, D98T
VL: DPVLTQTPSSTSAAVGGTVTIKCQASQNIGRWLAWYQQKPGQPPKLLIYRASDLASGVPSRFKGSGSGTQFTLTISGVQREDAATYYCLGSYSSSDSAFGGGTEVVVK
notes: Fab with rabbit Vκ/human Cκ/rabbit VH, His-tagged; also called Ab5 (κ)
B3: Ab2 Fab (His-tagged rabbit/human chimeric anti-C3d Fab) (Fab, V domains shown)
VH: QSVEESGGRLVTPGTPLTLTCTVSGFSLSSYAMTWVRQAPGKGLEWIGVIGTSGMRYYANWAKGRFTISKTSTTVDLKITSPTTEDTATYFCARANFYVGNDESTDAFDPWGPGTLVTVSS
VL: ALVMTQTPPSLSASVGETVRIRCLASEDIYNTISWYQQKPGKPPTLLIYGASNLKSGVPPRFSGSGSGTDYTLTIGGVQSEDAATYYCLGGYSYSSTGLTFGAGTKVEIK
notes: Fab with rabbit Vκ/human Cκ/rabbit VH, His-tagged; also called Ab2 (κ)
B4: Ab3 Fab (His-tagged rabbit/human chimeric anti-C3d Fab) (Fab, V domains shown)
VH: QKQLVESGGRLVTPGGSLTLTCTISGIDLNTYGMTWVRQAPGKGLEYIGIIVSSGNTYYANWAQGRFTISKTSTTVDLKMTSLTASDTATYFCARGLGRAYSSGYGMDGWGPGTLVTVSS
VL: DPVLTQTPSSTSAAVGGTVTIKCQASQNIYTSLAWYQQKPGQPPKLLIYGASNLASGVPSRFKGSRSGTEYTLTISGVEREDAATYYCLGSYTQIDTTFGGGTKLEIK
notes: Fab with rabbit Vκ/human Cκ/rabbit VH, His-tagged; also called Ab3 (κ)

Positions count from the first letter of the chain named. Results are given in words; binding and its absence hold for the method and conditions named. Some entries that bind do so weakly or less than the wild type. Sequences can lack the tags named with a protein.

This assay addresses T1, full length human C3 present in plasma (human, UniProt P01024 23-1663).
T1 construct: mature; Not purified: it stood in the assay as dilutions of normal human serum; also called full-length, soluble C3; C3 in NHS
Briefly: ELISA, competition; His-tagged Fab (1 ug/mL) on zymosan opsonized with human C3 fragments in the presence of normal human serum (printed PNHCS) at 1/10, 1/50, 1/250 as source of full-length C3; HRP mouse anti-His mAb; normalized to media without serum.
As for B1, the binding entry is on record as “binds”. The entry for B2 is “binds”. On to B3, for which the binding entry is listed as “binds”.

As for B4, the binding entry is “binds”.
